The source of these data is PubChem BioAssay AID493014 (National Center for Advancing Translational Sciences (NCATS), 2011).

This assay in a line: qHTS Assay to Find Inhibitors of Chronic Active B-Cell Receptor Signaling. Conditions: ABC-DLBCL IkBa-CBG/CBR reporter, luminescence ratio (green luciferase fused to IkBa over red control in TMD8 lymphoma cells), 4 h. An outline of the steps: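 TMD8 ABC-DLBCL cells carrying doxycycline-inducible green luciferase fused to IkappaBalpha plus unfused red luciferase were exposed to compounds (up to 46 uM) for 4 hrs at 37C. Activity came from the overlap-corrected green/red luminescence ratio.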
On the technique in general: Quantitative high-throughput screening tests each substance at several concentrations.

[1] abbreviates: measured here: CBR red luminescence, cell number.
[2] abbreviates: measured here: IkBa-CBG green luminescence.

Structures are written as SMILES. The list shows a part of the results. These are further read-outs of the screen, such as a control signal, another cell line or another target. No call is given for them. The list favours compounds with an active or inconclusive main result. Words in brackets tell the shape of the fitted curve; partial curves, single points and poor fits give uncertain potencies.

`O=C(Nc1ccon1)c1nc[nH]c1C(=O)NCc1ccccc1`: the half-maximal activity concentration (AC50) under setting [1] was 0.058 µM [falling, full curve, poor fit]. The same measure, in the same setting: as for `CCn1cc(CCC(=O)NCCN2CCOCC2)c2ccccc21`, the figure is 12.6 µM [rising, partial curve, poor fit]; as for `O=c1[nH]nc(SCCS(=O)(=O)c2ccc(F)cc2)n1-c1ccccc1`, 10 µM [falling, partial curve]. For `O=C(NCCc1ccccc1)C(=O)NCC1OCCN1S(=O)(=O)c1ccc(Cl)cc1` (centres undefined), the AC50 under setting [1] was 3.55 µM [rising, single point]. Regarding `Cc1csc(SCC(=O)Nc2nc3ccccc3s2)n1`, the AC50 under setting [1] is 18.4 µM [falling, partial curve, poor fit]. Same read-out and setting: in the case of `Cc1cc(N2CCN(C)CC2)n2nc(-c3ccc(Cl)cc3)nc2n1` it was 0.891 µM [rising, partial curve, poor fit]; in that of `C/C(=N/NC(N)=S)c1cc2ccc(O)cc2oc1=O`, 6.31 µM [falling, single point]; in that of `COc1ccc(-c2noc(CCC(=O)Nc3nc4ccccc4s3)n2)cc1`, 32.6 µM [falling, single point]. Still for that read-out and setting: in the case of `Cc1cc(NC(=O)CSc2cn(CCNC(=O)c3ccccc3)c3ccccc23)no1` it was 0.58 µM [falling, partial curve, poor fit]; in that of `CCn1c(=O)c([N+](=O)[O-])c(NCc2ccco2)c2ccccc21`, 7.08 µM [falling, partial curve, poor fit]. As to `CC(=O)N1CCC(N(CCN2CCOCC2)C(=S)Nc2cccc(C)c2C)CC1`, the AC50 under setting [1] is 20.6 µM [falling, partial curve]. The same measure, in the same setting: as for `O=C(NNc1cccc(Cl)n1)C(F)(F)F`, the figure is 35.5 µM [falling, single point].

On to `Cc1ccc(C(C[N+](=O)[O-])c2c(-c3ccccc3O)[nH][nH]c2=O)cc1` (centres undefined), for which the AC50 by setting is: under setting [1], 14.6 µM [falling, partial curve]; under setting [2], 29.1 µM [falling, single point]. Take `COc1ccc2nc(NC(=O)[C@@H]3CCCN3C(=O)c3cccs3)sc2c1`: the half-maximal activity concentration (AC50) under setting [2] was 16.4 µM [rising, partial curve, poor fit]. For the compound `CC(C)Cc1ccc(C(C)C(=N)N)cc1` (centres undefined), the AC50 under setting [1] was 14.1 µM [falling, partial curve, poor fit]. `CCOC(=O)CNC(=O)C1(/C=C/c2ccccc2)CC(=O)N1c1ccc(C)cc1` (centres undefined): the AC50 under setting [1] was 35.5 µM [rising, single point]. With `CCOc1ccc(C(=O)CCC(=O)N2CCN(c3ncccn3)CC2)cc1`, the AC50 under setting [1] is 7.08 µM [rising, full curve]. `O=C(CSC1=NCCS1)Nc1ccnc2ccccc12`: the AC50 under setting [1] was 7.31 µM [falling, partial curve, poor fit].

With `COc1ccc(CCNC(=O)C2CCCN(Cc3nc(-c4ccccc4C)oc3C)C2)cc1OC` (centres undefined), the half-maximal activity concentration (AC50) under setting [1] is 35.5 µM [falling, single point]. Take `CC(C)C(=O)N1CCC2(CC1)Oc1ccc(F)cc1C(=O)C21CC(c2ccccc2)=NO1` (centres undefined): under setting [1], the concentration at half-maximal activity (AC50) is 35.5 µM [falling, single point]. In the case of `Cc1ccc[n+](/C(C(=S)NCc2ccco2)=C(/[O-])c2ccccc2Cl)c1`, the AC50 under setting [1] is 0.58 µM [rising, partial curve].

In the case of `COc1ccc(CCNC(=O)c2oc(=O)c3ccccc3c2-c2ccccc2)cc1OC`, the AC50 under setting [1] is 3.55 µM [rising, full curve]. Same read-out and setting: as for `C1=C(N2CCOCC2)/C(=C/c2nc3ccccc3[nH]2)CC1`, the figure is 8.91 µM [falling, partial curve]; as for `O=C(Nc1ccc(Cl)c(Cl)c1)Nc1ccc(N2CCCC2)c(S(=O)(=O)Nc2ccccc2Cl)c1`, 23.1 µM [falling, single point]. With `Cc1ocnc1C(=O)Nc1ccc(Cl)cc1`, the concentration at half-maximal activity (AC50) under setting [1] was 11.2 µM [falling, single point]. The same measure, in the same setting: as for `COc1ccc(CCNC(=O)c2cc3c(=O)n4ccccc4nc3n(C3CCCCC3)c2=N)cc1OC`, the figure is 5.01 µM [rising, partial curve, poor fit]; as for `O=C(CSc1nncc2ccccc12)Nc1ccccc1`, 31.6 µM [falling, single point]. The same measure, in the same setting: as for `Cc1nn(-c2ccccc2)c(Cl)c1C(=O)OCC(=O)NCCc1ccc(S(N)(=O)=O)cc1`, the figure is 29.1 µM [falling, single point].

On to `O=C(COc1cc(Cl)c(Cl)cc1Cl)Nc1cccc(O)c1`, for which, under setting [1], the AC50 is 0.891 µM [rising, full curve, poor fit].

For `Cc1ccc(-c2c(C#N)c(N)nc3c2CCCCC3)cc1`, the AC50 under setting [1] was 6.51 µM [rising, single point]. Take `Cc1ccc(S(=O)(=O)Nc2nc(C)cc(-n3nc(C)cc3C)n2)cc1`: under setting [1], the AC50 is 23.1 µM [falling, single point]. As to `COc1ccc(-c2cc3n(n2)CCc2nc4ccccc4n2-3)cc1`, the AC50 under setting [1] is 2.06 µM [falling, partial curve]. On the same count and under the same terms, in the case of `C=CCOc1c(Cl)cc(CNCCC)cc1Cl` it was 18.4 µM [rising, single point]. As to `Cc1ccc(C(=O)/C=C/C(=O)O)cc1`, the AC50 is, setting by setting: under setting [1], 29.1 µM [falling, single point]; under setting [2], 25.9 µM [rising, single point]. Turning to `COc1ccc(N/C=C/C(=O)c2ccccc2)cc1`, the concentration at half-maximal activity (AC50) under setting [1] is 11.2 µM [falling, partial curve, poor fit]. The same measure, in the same setting: as for `CC(C)CCN1CCN(CC(c2ccccc2)c2ccccc2)CC1CCO` (centres undefined), the figure is 3.55 µM [falling, full curve, poor fit]. Turning to `Cc1ccc(NC(=S)NCc2ccccc2)cc1S(=O)(=O)N1CCCCC1`, the AC50 by setting is: under setting [1], 12.6 µM [falling, partial curve]; under setting [2], 35.5 µM [rising, partial curve, poor fit]. `CC1(C(=O)OCC(=O)Nc2nnc(-c3ccccc3)o2)CC1(Cl)Cl` (centres undefined): the AC50 under setting [1] is 32.6 µM [falling, single point]. On the same count and under the same terms, in the case of `CCCc1ccc(OCCNC(=O)c2ccco2)cc1` it was 8.91 µM [rising, partial curve, poor fit]; in that of `COc1ccccc1N(C(=O)c1snc(C(N)=O)c1N)C(C(=O)NCCC(C)C)c1ccco1` (centres undefined), 22.4 µM [falling, single point]; in that of `O=C(CN1CCCN(S(=O)(=O)c2ccc(Br)cc2)CC1)Nc1ccc2c(c1)OCO2`, 3.66 µM [falling, single point].

With `COc1ccccc1NC(=O)Nc1nnc(-c2ccco2)s1`, the concentration at half-maximal activity (AC50) under setting [1] was 12.6 µM [falling, single point]. Consider `CSc1nsc(SC)c1C(=O)OCC(F)(F)F`, for which the AC50 under setting [1] was 2 µM [falling, full curve, poor fit]. Take `COc1cc(O)c2c(=O)c3c(OC)c(O)ccc3oc2c1`: the AC50 under setting [1] is 8.2 µM [rising, partial curve] and the AC50 under setting [2] was 0.00411 µM [rising, full curve, poor fit]. In the case of `O=C1CNC(=S)N1Cc1ccccc1`, the AC50 under setting [1] is 0.141 µM [rising, full curve, poor fit]. Still for that read-out and setting: as for `CC(C)CN(C(=O)CSc1nc2ccccc2c(=O)[nH]1)c1c(N)n(CC(C)C)c(=O)[nH]c1=O`, the figure is 16.4 µM [rising, partial curve, poor fit]; as for `CC1CCCN(C(=O)COC(=O)c2cc(Br)ccc2O)C1` (centres undefined), 10.3 µM [falling, partial curve, poor fit]. Turning to `Cc1ccccc1C(=O)O/N=C(\N)c1ccccc1`, under setting [1], the half-maximal activity concentration (AC50) was 15.8 µM [falling, single point].

On to `Cc1cccc(NC(=O)c2cc3ccccc3o2)c1`, for which, under setting [1], the AC50 was 2 µM [falling, full curve].

On to `CCOc1ccc2nc(-c3ccc(OC)c(OC)c3)cc(C(=O)O)c2c1`, for which the concentration at half-maximal activity (AC50) under setting [1] is 0.146 µM [falling, full curve]. The same measure, in the same setting: in the case of `CSc1nnc(C)c(=O)n1COC(=O)c1ccc(S(=O)(=O)N(C)C)cc1` it was 16.4 µM [falling, single point]. Same read-out and setting: as for `Cc1ccc(OCCn2cnc3c(N)ncnc32)cc1`, the figure is 0.631 µM [falling, partial curve, poor fit]; as for `O=C(Nc1ccc(Nc2ccccc2)cc1)c1ccc(Cl)c([N+](=O)[O-])c1`, 15.8 µM [falling, partial curve, poor fit]; as for `O=C(COc1ccccc1[N+](=O)[O-])Nc1cc(Cl)ccc1C(=O)O`, 10 µM [falling, partial curve, poor fit].

With `CCOc1ccc(Nc2cc(C)c3ccccc3n2)cc1`, under setting [1], the concentration at half-maximal activity (AC50) is 5.01 µM [rising, partial curve].

For the compound `CCCC(CCC)C(=O)Nc1ccc2c(c1)N(C(=O)CN1CCN(C)CC1)c1ccccc1CC2`, the concentration at half-maximal activity (AC50) under setting [1] is 6.31 µM [falling, single point]. With `COC(=O)c1ccc2nc(Nc3nc4c(F)cc(F)cc4s3)sc2c1`, the AC50 by setting is: under setting [1], 0.0651 µM [falling, full curve]; under setting [2], 1.03 µM [rising, full curve, poor fit]. With `COc1ccc2c(c1)Cc1sc(NC(=O)c3ccco3)nc1-2`, under setting [1], the half-maximal activity concentration (AC50) is 8.91 µM [falling, partial curve].

`O=C1C2Sc3[nH]c(=O)sc3C(c3ccccc3)C2C(=O)N1c1ccccc1` (centres undefined): the AC50 under setting [1] is 35.5 µM [falling, partial curve, poor fit].

For the compound `Cc1cc(Cl)ccc1OC(C)C(=O)NN1C(=O)c2ccccc2C1=O` (centres undefined), the concentration at half-maximal activity (AC50) under setting [1] is 2.82 µM [falling, partial curve]. As for `O=C1N/C(=N\N=C\c2cccs2)SC1Cc1ccc(Cl)cc1` (centres undefined), the AC50 under setting [1] was 2.06 µM [falling, full curve].

Take `Cc1cc(NC(=O)Cc2cn3ccsc3n2)n(-c2ccccc2)n1`: under setting [1], the AC50 was 32.6 µM [falling, single point]. Take `FC(F)(F)c1ccc2c(c1)[nH]c(=S)n2C1CC1`: the AC50 under setting [1] was 12.6 µM [rising, single point].

As for `Cc1cc(C)n(CC(O)Cn2c(C)c(C)c3ccccc32)n1` (centres undefined), the half-maximal activity concentration (AC50) under setting [1] is 32.6 µM [rising, partial curve, poor fit].

The AC50 is the concentration giving half of the maximal activity seen.
